Assay [1] deals with T1, TDRD1 (mouse) (UniProt Q99MV1).
T1 sequence: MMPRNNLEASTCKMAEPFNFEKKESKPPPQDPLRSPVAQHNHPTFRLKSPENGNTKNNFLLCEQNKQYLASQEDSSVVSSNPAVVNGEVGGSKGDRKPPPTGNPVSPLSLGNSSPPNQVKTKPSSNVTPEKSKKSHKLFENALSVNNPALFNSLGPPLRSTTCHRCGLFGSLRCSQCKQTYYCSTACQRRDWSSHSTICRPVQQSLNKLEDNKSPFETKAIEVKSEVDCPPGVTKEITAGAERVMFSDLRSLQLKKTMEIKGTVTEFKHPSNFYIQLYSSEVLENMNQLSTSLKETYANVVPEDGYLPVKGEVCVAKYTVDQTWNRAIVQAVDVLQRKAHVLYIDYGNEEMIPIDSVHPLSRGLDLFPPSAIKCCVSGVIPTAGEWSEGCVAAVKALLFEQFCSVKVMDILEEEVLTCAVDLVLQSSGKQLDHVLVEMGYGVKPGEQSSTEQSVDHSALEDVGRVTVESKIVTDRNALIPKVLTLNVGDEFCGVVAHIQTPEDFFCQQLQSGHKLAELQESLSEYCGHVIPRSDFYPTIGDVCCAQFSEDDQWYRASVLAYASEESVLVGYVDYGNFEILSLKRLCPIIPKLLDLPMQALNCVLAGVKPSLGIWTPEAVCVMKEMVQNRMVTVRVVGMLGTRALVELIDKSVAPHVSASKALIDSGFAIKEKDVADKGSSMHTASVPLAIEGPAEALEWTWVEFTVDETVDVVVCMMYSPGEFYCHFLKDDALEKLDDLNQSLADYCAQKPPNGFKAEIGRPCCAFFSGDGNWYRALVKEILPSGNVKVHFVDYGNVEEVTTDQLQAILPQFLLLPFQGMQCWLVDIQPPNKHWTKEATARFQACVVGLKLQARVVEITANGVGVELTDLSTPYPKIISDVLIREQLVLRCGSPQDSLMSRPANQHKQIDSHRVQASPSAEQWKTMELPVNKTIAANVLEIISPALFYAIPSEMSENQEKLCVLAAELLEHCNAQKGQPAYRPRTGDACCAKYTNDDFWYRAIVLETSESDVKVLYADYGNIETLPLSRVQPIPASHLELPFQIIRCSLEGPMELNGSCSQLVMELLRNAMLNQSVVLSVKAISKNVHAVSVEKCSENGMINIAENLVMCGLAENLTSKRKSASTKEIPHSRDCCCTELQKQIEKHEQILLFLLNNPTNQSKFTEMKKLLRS
Nature of the assay: co-IP; 293T cells transiently transfected with tagged mouse proteins; lysis in 150 mM NaCl, 50 mM Tris-HCl pH 7.4, 1% Triton X-100, 1 mM EDTA; Protein A/G agarose beads and antibodies overnight at 4 °C; washes with 300 mM NaCl; Western blot for Flag, HA, GFP; some panels with the methyltransferase inhibitor MTA. A general note: In western blotting, separated proteins are transferred to a membrane and probed.

By UniProt entry, the sequences of proteins in these tests, tags left out. Where a name states a change or a piece, a line headed by the entry shows the natural chain unless it says otherwise.
UniProt Q9JMB7: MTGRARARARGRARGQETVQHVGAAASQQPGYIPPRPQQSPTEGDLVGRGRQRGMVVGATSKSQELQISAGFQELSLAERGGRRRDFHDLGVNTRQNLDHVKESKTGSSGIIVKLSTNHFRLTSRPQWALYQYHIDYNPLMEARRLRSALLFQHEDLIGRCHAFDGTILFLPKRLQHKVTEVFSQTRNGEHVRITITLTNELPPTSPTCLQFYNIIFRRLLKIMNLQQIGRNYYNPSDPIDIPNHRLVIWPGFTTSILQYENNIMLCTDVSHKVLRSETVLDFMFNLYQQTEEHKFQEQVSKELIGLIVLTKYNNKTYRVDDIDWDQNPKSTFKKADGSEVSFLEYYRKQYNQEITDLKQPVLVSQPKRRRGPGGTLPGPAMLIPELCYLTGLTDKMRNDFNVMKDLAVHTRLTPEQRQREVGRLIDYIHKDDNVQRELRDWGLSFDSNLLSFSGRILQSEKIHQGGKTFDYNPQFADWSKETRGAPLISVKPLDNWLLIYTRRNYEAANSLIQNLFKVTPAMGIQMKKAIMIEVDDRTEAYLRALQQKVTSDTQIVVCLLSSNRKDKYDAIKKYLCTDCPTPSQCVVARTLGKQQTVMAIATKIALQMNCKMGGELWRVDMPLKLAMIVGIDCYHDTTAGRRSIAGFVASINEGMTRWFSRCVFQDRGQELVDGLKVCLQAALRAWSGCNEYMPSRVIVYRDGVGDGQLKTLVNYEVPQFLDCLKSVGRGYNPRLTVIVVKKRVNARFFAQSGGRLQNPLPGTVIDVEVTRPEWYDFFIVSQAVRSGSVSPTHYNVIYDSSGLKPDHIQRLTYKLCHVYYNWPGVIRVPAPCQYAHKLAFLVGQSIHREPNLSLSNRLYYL

In assay [2] the target is T2, ASZ1 (mouse) (UniProt Q8VD46).
T2 sequence: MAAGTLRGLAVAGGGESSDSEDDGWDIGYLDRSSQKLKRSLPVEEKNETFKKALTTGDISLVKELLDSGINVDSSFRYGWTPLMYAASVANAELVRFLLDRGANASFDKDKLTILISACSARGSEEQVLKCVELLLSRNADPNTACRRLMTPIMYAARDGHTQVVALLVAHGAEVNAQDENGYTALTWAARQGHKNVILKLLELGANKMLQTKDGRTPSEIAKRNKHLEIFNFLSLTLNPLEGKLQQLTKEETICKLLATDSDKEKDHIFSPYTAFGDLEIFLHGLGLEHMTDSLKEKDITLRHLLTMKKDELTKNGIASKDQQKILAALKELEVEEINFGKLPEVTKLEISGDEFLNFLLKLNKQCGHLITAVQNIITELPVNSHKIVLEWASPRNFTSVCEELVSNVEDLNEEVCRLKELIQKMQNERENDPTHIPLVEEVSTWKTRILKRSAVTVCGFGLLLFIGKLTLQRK
The description is as above.

Results are given in words; binding and its absence hold for the method and conditions named. Binding seen in cells or lysates may run through a third protein. For some of these results: A result given as binding can be weak or reduced; the word gives no strength.

For “truncated PIWIL1, C-terminal deleted (mouse) (domain or fragment)”, the binding entry in assay [1] was “binds”.
On to “PIWIL1 N-terminal region (mouse) (domain or fragment)”, for which the binding entry in assay [1] is given as “binds”.
Same read-out and setting: then “truncated PIWIL1, N-terminal deleted (mouse) (domain or fragment)”, with “binds”.
In the case of “PIWIL2 C-terminal region (mouse) (domain or fragment)”, in assay [2], the binding entry was “no binding”.
“PIWIL1 RK mutation (from UniProt Q9JMB7)”: the binding result in assay [1] is “binds”.
Turning to “truncated PIWIL1, middle region deleted (from UniProt Q9JMB7)”, in assay [1], the binding result is recorded as “binds”.
Regarding “PIWIL2 N-terminal region (mouse) (domain or fragment)”, the binding entry in assay [2] was “no binding”.
